Test results published in publication PMC7744066.
Where two headings read alike, the source gives them in different places. These are yes or no findings as the source states them, for the method shown. Binding seen in cells or lysates may run through a third protein. Binding calls can cover weak binding; strength is not graded here. For some of these results: Sequences can lack the tags named with a protein. One block for each molecule: values may come before it.

Chains of the proteins cited; added tags and fusions are not shown. Lines headed by an entry give the natural chain unless they say otherwise; changes in a name come on top.
UniProt P31750: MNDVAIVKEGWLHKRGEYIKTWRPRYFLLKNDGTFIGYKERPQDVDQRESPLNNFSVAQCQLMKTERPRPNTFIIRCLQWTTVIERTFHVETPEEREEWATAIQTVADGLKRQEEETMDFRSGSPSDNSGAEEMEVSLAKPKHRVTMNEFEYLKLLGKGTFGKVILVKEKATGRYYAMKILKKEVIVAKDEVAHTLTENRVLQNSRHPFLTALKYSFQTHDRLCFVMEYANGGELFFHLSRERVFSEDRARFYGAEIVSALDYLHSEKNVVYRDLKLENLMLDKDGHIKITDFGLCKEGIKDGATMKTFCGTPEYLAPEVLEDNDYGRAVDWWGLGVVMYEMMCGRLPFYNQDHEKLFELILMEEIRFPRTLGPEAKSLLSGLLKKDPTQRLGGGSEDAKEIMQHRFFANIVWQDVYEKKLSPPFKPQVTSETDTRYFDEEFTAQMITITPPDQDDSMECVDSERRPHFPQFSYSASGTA
UniProt P31749: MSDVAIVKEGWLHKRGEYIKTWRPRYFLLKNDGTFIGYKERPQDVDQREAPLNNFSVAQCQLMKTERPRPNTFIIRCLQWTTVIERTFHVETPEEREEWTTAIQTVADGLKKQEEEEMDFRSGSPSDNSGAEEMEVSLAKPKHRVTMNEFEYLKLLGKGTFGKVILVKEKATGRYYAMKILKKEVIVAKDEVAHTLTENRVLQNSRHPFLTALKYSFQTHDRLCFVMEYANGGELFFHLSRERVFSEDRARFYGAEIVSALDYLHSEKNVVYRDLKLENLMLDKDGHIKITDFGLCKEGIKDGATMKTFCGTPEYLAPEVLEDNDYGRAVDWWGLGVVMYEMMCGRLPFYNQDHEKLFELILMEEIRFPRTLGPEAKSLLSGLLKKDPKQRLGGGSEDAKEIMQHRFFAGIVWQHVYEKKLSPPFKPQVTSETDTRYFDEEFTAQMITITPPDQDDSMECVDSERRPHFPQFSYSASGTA
UniProt P67775: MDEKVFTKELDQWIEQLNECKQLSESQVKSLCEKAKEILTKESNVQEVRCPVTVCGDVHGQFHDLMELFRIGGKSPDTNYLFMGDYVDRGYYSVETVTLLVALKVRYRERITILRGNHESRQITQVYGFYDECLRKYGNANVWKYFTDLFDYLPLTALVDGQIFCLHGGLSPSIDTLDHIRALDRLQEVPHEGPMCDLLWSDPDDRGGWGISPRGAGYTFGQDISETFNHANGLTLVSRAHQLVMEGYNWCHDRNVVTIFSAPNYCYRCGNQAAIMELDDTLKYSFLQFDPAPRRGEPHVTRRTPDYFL
UniProt P63330: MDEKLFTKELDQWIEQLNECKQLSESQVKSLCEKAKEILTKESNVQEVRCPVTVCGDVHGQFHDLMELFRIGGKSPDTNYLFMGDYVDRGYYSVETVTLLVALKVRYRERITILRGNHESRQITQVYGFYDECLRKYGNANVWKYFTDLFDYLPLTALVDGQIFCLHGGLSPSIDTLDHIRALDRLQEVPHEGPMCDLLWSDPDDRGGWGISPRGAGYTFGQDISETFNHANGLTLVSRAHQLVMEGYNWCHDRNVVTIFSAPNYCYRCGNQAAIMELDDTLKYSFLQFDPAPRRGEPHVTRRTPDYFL

What was measured:
[1] = target: Akt1, endogenous in mouse liver (mouse (endogenous in liver tissue)) (UniProt P31750); assay: co-IP; endogenous proteins in liver tissue lysates of WT and ALDOB KO mice; anti-Aldob or anti-Akt1 antibody overnight at 4°C, Protein A/G Sepharose beads, IgG as negative control
GST-Akt1 = GST-Akt1 (UniProt P31749); assay: pull-down; GST pull-down: recombinant GST-Akt1 (GST as control) with whole cell lysate of Flag-PP2A-C-transfected Huh7 cells, with recombinant WT-Aldob or Aldob-R304A added; only the target purified
Flag-PP2A-C [2] = target: Flag-PP2A-C (UniProt P67775); assay: co-IP; lysates of Huh7 cells transfected with the indicated constructs (and siRNAs) or of LM3-Aldob cells; anti-Flag or anti-Myc affinity gel or anti-Akt1 antibody with Protein A/G beads, overnight at 4°C, washed 4 times; in some panels cells serum-starved then 0.1 μM insulin or 100 ng/ml EGF, or MK2206 (1 μM) for 24 hours
Flag-Aldob = target: T1, Flag-Aldob (UniProt P05062); assay: as above
T1 sequence: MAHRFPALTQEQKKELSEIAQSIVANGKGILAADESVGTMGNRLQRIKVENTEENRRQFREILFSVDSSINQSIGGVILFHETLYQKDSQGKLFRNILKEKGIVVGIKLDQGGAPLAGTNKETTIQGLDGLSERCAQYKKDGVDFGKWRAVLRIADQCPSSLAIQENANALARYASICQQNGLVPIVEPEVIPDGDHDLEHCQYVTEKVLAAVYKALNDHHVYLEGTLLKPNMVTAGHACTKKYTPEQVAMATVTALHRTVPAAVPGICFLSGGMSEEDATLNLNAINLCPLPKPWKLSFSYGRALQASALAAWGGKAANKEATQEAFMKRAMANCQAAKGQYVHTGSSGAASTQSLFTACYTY

[3] = target: Akt1, endogenous in human liver tissue (human (endogenous in liver tissue)) (UniProt P31749); assay: co-IP; endogenous proteins in lysates of 2 pairs of human HCC tumor and adjacent normal liver tissues; anti-Aldob and anti-Akt1 IP, IgG as negative control
Flag-PP2A-C [4] = target: Flag-PP2A-C (UniProt P67775); assay: co-IP; lysates of Huh7 cells transfected with the indicated constructs (and siRNAs) or of LM3-Aldob cells; anti-Flag or anti-Myc affinity gel or anti-Akt1 antibody with Protein A/G beads, overnight at 4°C, washed 4 times; in some panels cells serum-starved then 0.1 μM insulin or 100 ng/ml EGF, or MK2206 (1 μM) for 24 hours; remark: listed apart in the source

Molecule: Flag-PP2A-C (from UniProt P67775)
binding (GST-Akt1): binds

Molecule: Akt1 in Huh7 lysate of S7D Fig (from UniProt P31749 1-480)
binding (Flag-PP2A-C [2]): binds

Molecule: catalytic subunit of PP2A (PP2A-C), endogenous in human liver tissue (from UniProt P67775)
binding [3]: binds

Further lines, results first:

binding [1]: binds
Molecule: catalytic subunit of PP2A (PP2A-C), endogenous in mouse liver (from UniProt P63330)

binding (Flag-Aldob): binds
Molecule: catalytic subunit of PP2A (PP2A-C), endogenous in Huh7 (from UniProt P67775)

binding (Flag-Aldob): no binding
Molecule: structural subunit of PP2A (PP2A-A)

binding (Flag-PP2A-C [4]): binds
B1: Aldob, ectopically expressed in Huh7 (tag not told for the experiment) (protein, UniProt P05062 1-364)
chain: T1 sequence
